This note sets out measurements from paper PMC9016900.

Sequences of proteins named here, by UniProt entry; tags and fusion partners are left off.
UniProt Q14145: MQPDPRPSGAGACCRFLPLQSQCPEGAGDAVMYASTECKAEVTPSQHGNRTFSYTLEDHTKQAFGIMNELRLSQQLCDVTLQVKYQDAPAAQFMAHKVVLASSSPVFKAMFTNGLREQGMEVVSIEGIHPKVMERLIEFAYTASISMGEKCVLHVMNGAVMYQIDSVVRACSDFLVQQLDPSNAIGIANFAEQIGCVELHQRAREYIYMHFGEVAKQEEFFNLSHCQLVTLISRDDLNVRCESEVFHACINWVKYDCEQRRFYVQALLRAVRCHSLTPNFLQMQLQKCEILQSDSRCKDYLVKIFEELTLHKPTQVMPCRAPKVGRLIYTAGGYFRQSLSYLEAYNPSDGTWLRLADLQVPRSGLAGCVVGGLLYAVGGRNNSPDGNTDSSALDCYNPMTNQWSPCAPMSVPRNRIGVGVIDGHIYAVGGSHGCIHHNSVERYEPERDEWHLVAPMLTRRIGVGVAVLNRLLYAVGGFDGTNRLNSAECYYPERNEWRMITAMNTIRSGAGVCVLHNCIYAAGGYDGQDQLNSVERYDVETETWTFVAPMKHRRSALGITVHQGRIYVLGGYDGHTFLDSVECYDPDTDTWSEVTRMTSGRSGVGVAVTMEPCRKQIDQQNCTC
UniProt Q9UKB1: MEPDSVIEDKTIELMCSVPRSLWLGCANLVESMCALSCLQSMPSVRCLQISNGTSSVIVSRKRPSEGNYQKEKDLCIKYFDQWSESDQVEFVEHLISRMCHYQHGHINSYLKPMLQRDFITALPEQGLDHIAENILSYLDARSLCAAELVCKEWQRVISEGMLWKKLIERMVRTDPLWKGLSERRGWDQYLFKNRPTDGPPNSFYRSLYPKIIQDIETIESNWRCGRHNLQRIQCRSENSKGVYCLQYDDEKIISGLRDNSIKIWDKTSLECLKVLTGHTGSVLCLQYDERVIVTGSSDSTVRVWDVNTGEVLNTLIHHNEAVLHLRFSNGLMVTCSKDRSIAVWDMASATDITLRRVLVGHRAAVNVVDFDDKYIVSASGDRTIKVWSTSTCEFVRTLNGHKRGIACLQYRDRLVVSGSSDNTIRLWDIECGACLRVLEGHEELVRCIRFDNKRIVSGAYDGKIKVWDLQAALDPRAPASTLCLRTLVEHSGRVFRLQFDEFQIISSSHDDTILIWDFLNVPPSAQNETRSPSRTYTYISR

Assay [1] addresses Kelch-like ECH-associated protein (Keap1), human, split-ubiquitin fusion (human) (UniProt Q14145). Nature of the assay: split reporter; yeast split-ubiquitin system: Nub (NuI, NuA, NuG) and Cub-RUra3p (CRU) fusions co-expressed in yeast; interaction = no growth on uracil- media and growth on 5FOA media; 5x serial dilutions spotted on selective agar plates.
Assay [2] addresses T1, Nuclear factor erythroid 2-related factor 2 (Nrf2), human, split-ubiquitin fusion (human) (UniProt Q16236).
T1 sequence: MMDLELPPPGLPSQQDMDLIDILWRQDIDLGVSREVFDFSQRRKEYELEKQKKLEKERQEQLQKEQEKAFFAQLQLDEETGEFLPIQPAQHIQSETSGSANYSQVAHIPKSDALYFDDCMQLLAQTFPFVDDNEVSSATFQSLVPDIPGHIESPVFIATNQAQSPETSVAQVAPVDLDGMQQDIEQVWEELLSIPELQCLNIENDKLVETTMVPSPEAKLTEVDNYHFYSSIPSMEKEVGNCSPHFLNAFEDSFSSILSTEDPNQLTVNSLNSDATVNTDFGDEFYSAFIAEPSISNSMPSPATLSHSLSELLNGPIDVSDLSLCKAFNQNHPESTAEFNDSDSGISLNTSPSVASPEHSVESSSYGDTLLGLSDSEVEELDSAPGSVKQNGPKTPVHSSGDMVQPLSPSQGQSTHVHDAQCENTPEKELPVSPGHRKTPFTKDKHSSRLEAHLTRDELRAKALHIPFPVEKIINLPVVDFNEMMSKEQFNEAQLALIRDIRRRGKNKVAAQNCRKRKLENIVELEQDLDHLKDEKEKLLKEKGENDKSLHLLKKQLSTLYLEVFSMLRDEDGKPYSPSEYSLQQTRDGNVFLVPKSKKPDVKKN
The assay is described as above.

Results are given in words; binding and its absence hold for the method and conditions named. In cells and extracts the contact can be indirect. Some binding calls cover weakened binding; strength is not graded here. Tags and fused reporters may be left off the sequences shown.

With “β-transducin repeat-containing protein (βTrCP), human, split-ubiquitin fusion (from UniProt Q9UKB1 1-542)”, the binding result in assay [1] and in assay [2] was “binds” in each case.

B1: prothymosin alpha (ProTα), human, split-ubiquitin fusion (protein, UniProt P06454 1-111)
chain: MSDAAVDTSSEITTKDLKEKKEVVEEAENGRDAPANGNAENEENGEQEADNEVDEEEEEGGEEEEEEEEGDGEEEDGDEDEEAESATGKRAAEDDEDDDVDTKKQKTDEDD
For the molecule B1, the binding result in assay [1] is reported as “binds”.
